These are yes or no findings as the source states them, for the method shown. Binding can be weak; no strength is given.
Target: baboon CD40 fusion protein (printed 'CD40-NMP fusion') used on the BIACore 3000 (baboon)
Assay: BIACore 3000, h2C10 immobilized on a CM5 chip by amine coupling, CD40 fusion as analyte (Figure 16)

- binding: binds
B1: humanized 2C10 antibody, Clone 2.189.2 (2C10_h3 + 2C10_l2) (antibody, V domains shown)
VH: QVQLVQSGAEVKKPGASVKVSCKASGYTFTNYWMHWVRQAPGQRLEWIGYINPSNDYTKYNQKFKDRATLTADKSANTAYMELSSLRSEDTAVYYCARQGFPYWGQGTLVTVSS
VL: EIVLTQSPATLSLSPGERATLSCSASSSVSYMHWYQQKPGQAPRRWIYDTSKLASGVPARFSGSGSGTDYTLTISSLEPEDFAVYYCHQLSSDPFTFGGGTKVEIK
notes: also called h2C10; mAb 2.189.2

Source: patent publication EP4818209A2 (Primatope Therapeutics Inc., dated 2026)
